These are yes or no findings as the source states them, for the method shown. Some entries that bind do so weakly or less than the wild type. Tags and fused reporters may be left off the sequences shown.
Columns and labels:
[1] = biological target: T1, HA epitope-tagged CTRP12 (mouse) (UniProt Q8R2Z0); assay: co-expression in HEK 293T cells, immunoprecipitation then immunoblot of supernatants (FLAG / HA tags)
T1 sequence: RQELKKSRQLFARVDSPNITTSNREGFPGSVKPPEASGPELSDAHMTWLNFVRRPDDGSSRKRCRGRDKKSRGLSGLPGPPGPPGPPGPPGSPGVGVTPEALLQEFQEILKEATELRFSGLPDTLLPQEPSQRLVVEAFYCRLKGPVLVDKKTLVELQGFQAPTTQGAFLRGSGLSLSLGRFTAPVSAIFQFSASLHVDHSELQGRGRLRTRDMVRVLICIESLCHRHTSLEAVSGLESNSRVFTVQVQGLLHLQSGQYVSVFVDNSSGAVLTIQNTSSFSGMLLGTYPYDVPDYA

[2] = biological target: T1, HA epitope-tagged CTRP12 (mouse); assay: immunoprecipitation then immunoblot, FIG. 4E legend

binding [1]: binds
binding [2]: binds
B1: FLAG epitope-tagged mouse myonectin (CTRP15) (ligand)
chain: LGVPESAEPVGTHARPQPPGAELPAPPANSPPEPTIAHAHSVDPRDAWMLFVKQSDKGINSKRRSKARRLKLGLPGPPGPPGPQGPPGPFIPSEVLLKEFQLLLKGAVRQRESHLEHCTRDLTTPASGSPSRVPAAQELDSQDPGALLALLAATLAQGPRAPRVEAAFHCRLRRDVQVDRRALHELGIYYLPEVEGAFHRGPGLNLTSGQYTAPVAGFYALAATLHVALTEQPRKGPTRPRDRLRLLICIQSLCQHNASLETVMGLENSSELFTISVNGVLYLQAGHYTSVFLDNASGSSLTVRSGSHFSAILLGLDYKDDDDK
modifications: N-linked glycans (sites not given)
